From PubChem BioAssay AID2685 (National Center for Advancing Translational Sciences (NCATS), 2010)
The list shows a part of the results. Shown are side measurements of this screen, not its main read-out; they come without a call. Most of these compounds were active or inconclusive in the main read-out, so they are no random draw. Potencies come from curve fits of mixed quality, noted in brackets.

Experiment: qHTS Assay for Lipid Storage Modulators in Drosophila S3 Cells;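 for cell number change: cells counted by Cell Tracker Red CMTPX staining in the red channel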
Conditions: BODIPY lipid droplet fluorescence, 18-24 h; for cell number change: measured here: cell count max response, cells fed with added oleic acid
Summary of the method: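 Laser-scanning cytometry quantifies lipid droplet accumulation (500–530 nm total intensity; droplet/cell object ratio) in oleic acid-fed (400 uM added) Drosophila S3 cells treated with a concentration series. 20 uM Triacsin C defined 100% inhibition.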

[1] = measured here: lipid fluorescence (Fed channel) AC50, cells fed with added oleic acid
[2] = measured here: cell number channel AC50, cells fed with added oleic acid

| SMILES | cell number change [%] | AC50 [1] | AC50 [2] |
| --- | --- | --- | --- |
| COc1ccc(C(=S)N2CCCC2)cc1Br | 16.1 | 29.1 µM [rising, single point] | – |
| CCOC(=O)N1CCC(NC(=O)C2CCCCN2S(=O)(=O)c2ccc(F)cc2)CC1 (stereo not drawn) | 0.0065 | 3.26 µM [rising, single point] | – |
| Cc1cccc(NC(=O)c2cc3c(s2)-c2c(C)cccc2OC3)n1 | 61 | 0.13 µM [rising, full curve, poor fit] | 6.51 µM [rising, partial curve] |
| CC(C(=O)Nc1ccc(Cl)cc1)N(C)Cc1cccs1 (stereo not drawn) | 14 | 2.91 µM [rising, single point] | – |
| CC(C)CC(NS(=O)(=O)c1ccc2[nH]c(=O)c(=O)[nH]c2c1)C(=O)O (stereo not drawn) | 4.63 | 5.17 µM [falling, single point] | – |
| Cc1ccc(NC(=S)Nc2ccc3cn[nH]c3c2)c(C)c1 | 19.5 | – | – |
| CC(C)(C)c1ccc(NC(=O)NC2CCCc3ccccc32)cc1 (stereo not drawn) | -37.4 | 2.59 µM [rising, single point] | 4.11 µM [falling, single point] |
| O=C(N/N=C/c1ccc(OC(=O)c2cccc(F)c2)cc1)c1cccnc1 | 1.26 | 6.51 µM [rising, single point] | – |
| CCOC(=O)C1CCN(C(=O)Nc2ccc(Cl)cc2Cl)CC1 | -24.2 | 23.1 µM [rising, partial curve] | – |
| O=C(CCC1N=C2c3ccccc3N=C(SCc3ccccc3Cl)N2C1=O)NCc1ccco1 (stereo not drawn) | – | 0.259 µM [rising, partial curve, poor fit] | 2.06 µM [rising, single point] |
| Cc1ccc(C2(C)NC(=O)N(CC(=O)Nc3ccccc3C(=O)NC3CCCC3)C2=O)cc1 (stereo not drawn) | 12.8 | 0.82 µM [falling, single point] | – |
| COc1cc(CN2CCCCCC2)cc([N+](=O)[O-])c1O | 6.2 | 29.1 µM [rising, single point] | – |
| Cc1scc(C(=O)NNC(=S)NCC(C)C)c1C | 19.5 | 5.8 µM [rising, partial curve] | – |
| Cc1ccccc1-c1nc(CS(=O)(=O)CC(=O)N2CCN(C)CC2)c(C)o1 | 32.4 | 23.1 µM [rising, single point] | 29.1 µM [rising, single point] |
| CCN(CC)c1ccc(NC(=O)CN2CCN(c3ccc(F)cc3)CC2)cc1 | 4.51 | – | – |
| CC1CCCC(NC(=O)CCCn2c(=O)[nH]c3cc(Cl)ccc3c2=O)C1C (stereo not drawn) | -35 | 1.3 µM [falling, full curve] | 29.1 µM [falling, single point] |
| COc1ccc(CNC(=O)CN(C(=O)CCC(=O)Nc2nccs2)c2cccc(C)c2)cc1 | 148 | 3.66 µM [rising, partial curve, poor fit] | 25.9 µM [rising, single point] |
| O=C(Nc1ccc(Sc2ccc(Br)cc2)cc1)c1ccco1 | -11.1 | 6.51 µM [falling, single point] | 6.51 µM [falling, single point] |
| O=C(CCl)N(c1ccccc1)C1CCS(=O)(=O)C1 (stereo not drawn) | -21.1 | 20.6 µM [falling, single point] | – |
| CN(C(=O)COC(=O)c1nc(Cl)ccc1Cl)C1CCS(=O)(=O)C1 (stereo not drawn) | 7.32 | – | – |
| COc1ccc(C2C=C(c3ccc(Br)s3)Nc3ncnn32)cc1OC (stereo not drawn) | – | 0.231 µM [rising, full curve] | 2.91 µM [rising, partial curve] |
| O=C1NN(c2ccccc2)C(=O)/C1=C\c1ccc2c(c1)OCO2 | 2.65 | 2.91 µM [rising, single point] | – |
| COc1ccc(S(=O)(=O)NCCOc2ccccc2)cc1F | 30 | 6.51 µM [rising, full curve] | – |
| O=C(CSc1ccc(Cl)cc1)OCC(=O)N1CCN(c2ccccc2)CC1 | 3.94 | 7.31 µM [falling, partial curve, poor fit] | – |
| Cc1ccc(S(=O)(=O)CCC(=O)OCc2ccc(S(=O)(=O)C(C)C)cc2)cc1 | -33.7 | 6.51 µM [falling, single point] | 4.11 µM [falling, single point] |
| Cc1nc(C)c(C(=O)C2=C(O)C(=O)N(CCN(C)C)C2c2ccco2)s1 (stereo not drawn) | -1.17 | – | – |
| CCOC(=O)c1ccc(NC(=O)N2CCN(Cc3ccccc3)CC2)cc1 | -15.4 | 1.16 µM [falling, full curve, poor fit] | 6.51 µM [falling, single point] |

Rewritten as comma-separated lines: part of the list above.
SMILES,cell number change [%],AC50 [1],AC50 [2]
O=C(N/N=C/c1ccc(OC(=O)c2cccc(F)c2)cc1)c1cccnc1,1.26,"6.51 µM [rising, single point]",–
CCOC(=O)C1CCN(C(=O)Nc2ccc(Cl)cc2Cl)CC1,-24.2,"23.1 µM [rising, partial curve]",–
